US20190352376A1
These are yes or no findings as the source states them, for the method shown. Some results given as binding are weak or reduced against the parent protein; the word gives no strength.

Protein sequences, listed by entry. Tags and fused reporters are not part of them. Lines headed by an entry give the natural chain unless they say otherwise; changes in a name come on top. Residues count along the entry.
UniProt P03452, residues 18-528: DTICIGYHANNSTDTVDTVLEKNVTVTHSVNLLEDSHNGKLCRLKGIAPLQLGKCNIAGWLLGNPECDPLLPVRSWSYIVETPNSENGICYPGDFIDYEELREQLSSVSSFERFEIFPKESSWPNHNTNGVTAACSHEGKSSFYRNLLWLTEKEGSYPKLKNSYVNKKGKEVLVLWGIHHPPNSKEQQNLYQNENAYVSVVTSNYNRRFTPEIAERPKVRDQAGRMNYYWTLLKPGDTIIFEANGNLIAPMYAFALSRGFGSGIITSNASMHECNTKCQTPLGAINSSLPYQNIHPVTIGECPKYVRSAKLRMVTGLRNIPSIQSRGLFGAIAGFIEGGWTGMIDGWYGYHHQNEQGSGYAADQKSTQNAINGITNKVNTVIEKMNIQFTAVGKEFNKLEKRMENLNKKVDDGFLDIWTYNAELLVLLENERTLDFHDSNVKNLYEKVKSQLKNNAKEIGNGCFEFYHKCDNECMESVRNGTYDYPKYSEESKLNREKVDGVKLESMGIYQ
UniProt P03454, residues 18-565: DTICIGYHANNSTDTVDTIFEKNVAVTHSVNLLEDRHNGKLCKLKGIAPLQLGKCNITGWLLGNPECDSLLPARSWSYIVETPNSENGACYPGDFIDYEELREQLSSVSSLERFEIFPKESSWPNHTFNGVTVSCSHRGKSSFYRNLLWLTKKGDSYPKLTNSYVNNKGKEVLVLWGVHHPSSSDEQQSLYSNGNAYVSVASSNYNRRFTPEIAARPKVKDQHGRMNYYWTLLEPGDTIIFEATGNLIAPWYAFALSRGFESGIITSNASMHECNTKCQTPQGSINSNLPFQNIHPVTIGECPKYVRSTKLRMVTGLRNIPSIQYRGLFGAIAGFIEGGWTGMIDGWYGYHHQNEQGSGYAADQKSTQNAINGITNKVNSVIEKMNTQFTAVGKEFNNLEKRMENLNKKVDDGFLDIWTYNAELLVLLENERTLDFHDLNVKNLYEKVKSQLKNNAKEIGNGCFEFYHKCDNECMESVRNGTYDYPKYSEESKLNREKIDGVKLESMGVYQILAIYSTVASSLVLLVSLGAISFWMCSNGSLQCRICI
UniProt P03457: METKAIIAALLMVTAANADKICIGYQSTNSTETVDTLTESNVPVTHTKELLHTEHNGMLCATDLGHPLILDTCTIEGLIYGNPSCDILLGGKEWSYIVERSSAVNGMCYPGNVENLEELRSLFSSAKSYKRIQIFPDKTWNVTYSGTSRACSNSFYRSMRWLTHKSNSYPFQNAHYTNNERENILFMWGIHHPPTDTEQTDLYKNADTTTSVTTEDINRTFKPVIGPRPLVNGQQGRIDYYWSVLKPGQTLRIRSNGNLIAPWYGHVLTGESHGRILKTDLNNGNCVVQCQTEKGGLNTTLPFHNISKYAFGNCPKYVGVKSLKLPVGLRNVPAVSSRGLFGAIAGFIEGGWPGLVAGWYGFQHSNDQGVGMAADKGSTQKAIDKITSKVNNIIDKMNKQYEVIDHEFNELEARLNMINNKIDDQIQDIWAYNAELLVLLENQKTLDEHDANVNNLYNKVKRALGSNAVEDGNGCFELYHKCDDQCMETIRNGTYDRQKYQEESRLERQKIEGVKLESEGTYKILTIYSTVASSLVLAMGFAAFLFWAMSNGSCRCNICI
UniProt P03456: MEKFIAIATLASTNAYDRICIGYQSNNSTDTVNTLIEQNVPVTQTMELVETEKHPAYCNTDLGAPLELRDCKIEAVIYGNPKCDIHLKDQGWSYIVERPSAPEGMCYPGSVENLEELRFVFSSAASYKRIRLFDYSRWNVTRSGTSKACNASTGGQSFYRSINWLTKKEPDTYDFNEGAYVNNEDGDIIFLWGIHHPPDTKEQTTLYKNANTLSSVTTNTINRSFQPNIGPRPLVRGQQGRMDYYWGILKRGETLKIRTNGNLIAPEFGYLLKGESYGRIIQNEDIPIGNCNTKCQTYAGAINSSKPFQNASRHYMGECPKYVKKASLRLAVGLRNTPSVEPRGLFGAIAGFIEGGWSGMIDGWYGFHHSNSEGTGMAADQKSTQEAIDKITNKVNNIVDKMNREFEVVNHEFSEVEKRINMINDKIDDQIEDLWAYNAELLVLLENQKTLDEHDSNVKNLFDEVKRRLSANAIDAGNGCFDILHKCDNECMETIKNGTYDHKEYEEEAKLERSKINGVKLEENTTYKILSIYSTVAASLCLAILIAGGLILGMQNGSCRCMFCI
UniProt P13103: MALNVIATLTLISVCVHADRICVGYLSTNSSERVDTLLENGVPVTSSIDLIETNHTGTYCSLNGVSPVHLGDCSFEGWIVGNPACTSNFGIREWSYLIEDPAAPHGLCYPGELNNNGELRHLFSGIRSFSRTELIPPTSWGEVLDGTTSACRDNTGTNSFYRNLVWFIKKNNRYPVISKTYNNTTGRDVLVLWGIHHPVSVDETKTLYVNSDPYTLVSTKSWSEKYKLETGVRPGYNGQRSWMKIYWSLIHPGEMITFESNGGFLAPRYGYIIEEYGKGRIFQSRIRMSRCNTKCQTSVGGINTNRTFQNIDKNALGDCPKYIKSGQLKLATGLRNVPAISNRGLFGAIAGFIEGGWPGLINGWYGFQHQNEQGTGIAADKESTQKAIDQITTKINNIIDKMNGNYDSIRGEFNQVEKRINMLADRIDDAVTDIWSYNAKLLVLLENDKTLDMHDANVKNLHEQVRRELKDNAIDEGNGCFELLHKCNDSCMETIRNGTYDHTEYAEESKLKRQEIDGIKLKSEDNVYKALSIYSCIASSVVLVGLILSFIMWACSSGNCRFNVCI
UniProt P03446: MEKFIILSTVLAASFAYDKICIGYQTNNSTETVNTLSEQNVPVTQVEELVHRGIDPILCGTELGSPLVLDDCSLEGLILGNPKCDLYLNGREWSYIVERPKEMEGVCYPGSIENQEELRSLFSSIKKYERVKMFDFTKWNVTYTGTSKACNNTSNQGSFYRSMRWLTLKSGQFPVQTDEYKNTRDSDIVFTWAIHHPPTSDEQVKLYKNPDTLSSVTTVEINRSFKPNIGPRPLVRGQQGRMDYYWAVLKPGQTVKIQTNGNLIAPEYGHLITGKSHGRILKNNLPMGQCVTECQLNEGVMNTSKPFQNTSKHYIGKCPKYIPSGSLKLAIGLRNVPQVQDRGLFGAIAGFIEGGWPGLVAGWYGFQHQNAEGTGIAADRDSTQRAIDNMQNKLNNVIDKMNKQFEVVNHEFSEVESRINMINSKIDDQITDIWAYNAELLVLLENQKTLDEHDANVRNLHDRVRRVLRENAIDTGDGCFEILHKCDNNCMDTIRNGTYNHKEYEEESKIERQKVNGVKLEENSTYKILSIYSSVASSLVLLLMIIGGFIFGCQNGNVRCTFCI

Tests used:
[1] = target: hemagglutinin of H1N1 A/Puerto Rico/8/1934 (influenza virus H1N1 A/Puerto Rico/8/1934) (UniProt P03452); experiment: dot blot, 4M urea
[2] = target: hemagglutinin of H1N1 A/Puerto Rico/8/1934 (influenza virus H1N1 A/Puerto Rico/8/1934) (UniProt P03452); experiment: Western blot; rHA, insect cells
[3] = target: hemagglutinin of H1N1 A/Puerto Rico/8/1934 (influenza virus H1N1 A/Puerto Rico/8/1934) (UniProt P03452); experiment: Western blot; rHA
[4] = target: hemagglutinin of H1N1 A/Wilson Smith/33 (influenza virus H1N1 A/Wilson Smith/33) (UniProt P03454); experiment: Western blot; virus, HEK293 cells
[5] = target: hemagglutinin of H1N1 A/Puerto Rico/8/1934 (influenza virus H1N1 A/Puerto Rico/8/1934) (UniProt P03452); experiment: Western blot; virus, HEK293 cells
[6] = target: hemagglutinin of H9N2 A/Turkey/Wisconsin/1/66 (influenza virus H9N2 A/Turkey/Wisconsin/1/66) (UniProt P03457); experiment: Western blot; virus, eggs
[7] = target: hemagglutinin of H1N1 A/Puerto Rico/8/1934 (influenza virus H1N1 A/Puerto Rico/8/1934) (UniProt P03452); experiment: Western blot; virus, eggs
[8] = target: hemagglutinin of H8N4 A/Turkey/Ontario/6118/68 (influenza virus H8N4 A/Turkey/Ontario/6118/68) (UniProt P03456); experiment: Western blot; virus, eggs
[9] = target: hemagglutinin of H13N6 A/Gull/Maryland/704/77 (influenza virus H13N6 A/Gull/Maryland/704/77) (UniProt P13103); experiment: Western blot; virus, eggs
[10] = target: hemagglutinin of H1N1 A/Puerto Rico/8/1934 (influenza virus H1N1 A/Puerto Rico/8/1934) (UniProt P03452); experiment: Western blot; virus, MDCK cells
[11] = target: hemagglutinin of H12N5 A/Duck/Alberta/60/76 (influenza virus H12N5 A/Duck/Alberta/60/76) (UniProt P03446); experiment: Western blot; virus, MDCK cells

Measured: binding

B1: F211-11H12 (antibody, V domains shown)
VH: DVQLQESGPGLVKPSQSLSLTCSVTGYSITSDYYWNWIRQFPGNKLEWMAYIGYDGTKNYNPSLKNRISITRDTSKNQFFLKLNSVTTDDTATYYCTRDRANWDDYFDYWGQGTTLTVSS
VL: DIVMSQSPSSLAVSVGEKVTMSCKSSQSLLNSRNQKNHLAWYQQKPGQSPKLLIYWASTRESGVPDRFTGDGSGTDFTLTISSVKAEDLAVYYCQQYYTYRTFGGGTKLEIK
binds: all assays above
